The supplement of paper PMC10849652
Some of the results follow.

The chains behind the UniProt entries cited, without tags or fusion partners. Where a name states a change or a piece, a line headed by the entry shows the natural chain unless it says otherwise.
UniProt Q9Y484: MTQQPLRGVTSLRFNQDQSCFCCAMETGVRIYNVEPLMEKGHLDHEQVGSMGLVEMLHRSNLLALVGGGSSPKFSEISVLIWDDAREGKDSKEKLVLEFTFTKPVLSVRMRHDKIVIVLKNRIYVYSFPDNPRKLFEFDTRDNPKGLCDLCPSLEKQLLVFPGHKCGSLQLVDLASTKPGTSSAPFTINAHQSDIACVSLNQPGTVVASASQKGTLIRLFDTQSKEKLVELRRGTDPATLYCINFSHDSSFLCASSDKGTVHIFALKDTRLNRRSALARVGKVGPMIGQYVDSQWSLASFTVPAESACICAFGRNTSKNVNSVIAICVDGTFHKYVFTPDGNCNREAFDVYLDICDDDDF
UniProt Q9UN37: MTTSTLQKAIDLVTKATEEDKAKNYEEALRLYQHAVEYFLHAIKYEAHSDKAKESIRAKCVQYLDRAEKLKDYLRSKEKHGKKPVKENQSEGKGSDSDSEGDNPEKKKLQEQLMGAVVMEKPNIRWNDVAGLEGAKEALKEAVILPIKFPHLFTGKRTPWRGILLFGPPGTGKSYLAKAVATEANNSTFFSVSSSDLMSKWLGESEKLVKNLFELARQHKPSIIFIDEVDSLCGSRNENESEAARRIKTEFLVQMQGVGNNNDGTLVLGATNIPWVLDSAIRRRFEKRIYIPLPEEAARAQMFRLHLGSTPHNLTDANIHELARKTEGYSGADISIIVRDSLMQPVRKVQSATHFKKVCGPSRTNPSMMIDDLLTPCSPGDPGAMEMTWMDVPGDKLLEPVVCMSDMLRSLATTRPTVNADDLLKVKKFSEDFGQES
UniProt Q9Y6W5, whole entry, looked up: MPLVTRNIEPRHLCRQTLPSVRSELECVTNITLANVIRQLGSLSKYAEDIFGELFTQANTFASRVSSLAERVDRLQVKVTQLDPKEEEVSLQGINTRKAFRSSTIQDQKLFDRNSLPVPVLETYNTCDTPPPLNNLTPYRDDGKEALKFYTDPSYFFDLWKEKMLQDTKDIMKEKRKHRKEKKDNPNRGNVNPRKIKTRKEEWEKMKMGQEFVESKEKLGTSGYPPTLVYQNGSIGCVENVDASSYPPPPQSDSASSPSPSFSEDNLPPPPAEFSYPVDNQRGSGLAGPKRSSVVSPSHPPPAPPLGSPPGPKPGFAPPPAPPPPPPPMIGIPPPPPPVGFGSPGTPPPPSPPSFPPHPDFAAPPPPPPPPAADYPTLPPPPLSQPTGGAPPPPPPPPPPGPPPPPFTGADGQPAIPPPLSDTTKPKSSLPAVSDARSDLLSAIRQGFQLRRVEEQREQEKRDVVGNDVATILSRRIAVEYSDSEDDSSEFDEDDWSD
UniProt Q9BUR4: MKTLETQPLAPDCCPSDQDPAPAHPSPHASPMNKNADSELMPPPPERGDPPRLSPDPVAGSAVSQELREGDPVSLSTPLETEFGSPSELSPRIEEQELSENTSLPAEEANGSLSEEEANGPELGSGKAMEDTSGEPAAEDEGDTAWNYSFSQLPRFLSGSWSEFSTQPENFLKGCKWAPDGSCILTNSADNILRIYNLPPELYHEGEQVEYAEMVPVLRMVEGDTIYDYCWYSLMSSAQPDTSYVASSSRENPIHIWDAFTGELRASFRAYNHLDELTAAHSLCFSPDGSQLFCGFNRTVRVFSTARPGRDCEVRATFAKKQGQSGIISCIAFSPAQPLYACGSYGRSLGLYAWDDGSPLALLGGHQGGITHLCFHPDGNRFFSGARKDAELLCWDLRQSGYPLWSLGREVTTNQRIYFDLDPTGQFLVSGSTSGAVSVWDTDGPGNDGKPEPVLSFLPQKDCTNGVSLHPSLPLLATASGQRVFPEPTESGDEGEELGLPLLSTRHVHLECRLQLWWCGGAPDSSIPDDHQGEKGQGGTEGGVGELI
UniProt Q9BQA1, whole entry, looked up: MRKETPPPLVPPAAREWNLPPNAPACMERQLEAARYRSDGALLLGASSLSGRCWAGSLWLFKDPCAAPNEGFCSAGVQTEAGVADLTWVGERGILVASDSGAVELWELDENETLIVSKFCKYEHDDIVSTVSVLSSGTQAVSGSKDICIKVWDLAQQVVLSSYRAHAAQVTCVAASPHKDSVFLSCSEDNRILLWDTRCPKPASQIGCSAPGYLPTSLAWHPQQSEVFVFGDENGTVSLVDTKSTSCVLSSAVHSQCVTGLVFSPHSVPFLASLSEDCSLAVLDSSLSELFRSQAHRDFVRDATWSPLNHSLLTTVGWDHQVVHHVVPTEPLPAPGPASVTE
UniProt A6NGB9: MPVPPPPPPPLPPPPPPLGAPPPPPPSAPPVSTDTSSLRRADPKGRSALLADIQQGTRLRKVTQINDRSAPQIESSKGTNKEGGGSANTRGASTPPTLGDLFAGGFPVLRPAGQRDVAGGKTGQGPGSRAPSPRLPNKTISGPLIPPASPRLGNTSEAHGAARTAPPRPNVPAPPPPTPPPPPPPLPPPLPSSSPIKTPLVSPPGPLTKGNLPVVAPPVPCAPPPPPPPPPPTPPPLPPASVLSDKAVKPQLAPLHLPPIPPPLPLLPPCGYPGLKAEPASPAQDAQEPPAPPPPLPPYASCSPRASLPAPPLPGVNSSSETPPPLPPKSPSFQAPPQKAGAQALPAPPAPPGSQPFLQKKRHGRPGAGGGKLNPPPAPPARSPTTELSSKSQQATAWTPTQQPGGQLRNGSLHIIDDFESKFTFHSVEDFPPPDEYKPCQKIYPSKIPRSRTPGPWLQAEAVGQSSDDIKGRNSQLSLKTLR
UniProt Q92558: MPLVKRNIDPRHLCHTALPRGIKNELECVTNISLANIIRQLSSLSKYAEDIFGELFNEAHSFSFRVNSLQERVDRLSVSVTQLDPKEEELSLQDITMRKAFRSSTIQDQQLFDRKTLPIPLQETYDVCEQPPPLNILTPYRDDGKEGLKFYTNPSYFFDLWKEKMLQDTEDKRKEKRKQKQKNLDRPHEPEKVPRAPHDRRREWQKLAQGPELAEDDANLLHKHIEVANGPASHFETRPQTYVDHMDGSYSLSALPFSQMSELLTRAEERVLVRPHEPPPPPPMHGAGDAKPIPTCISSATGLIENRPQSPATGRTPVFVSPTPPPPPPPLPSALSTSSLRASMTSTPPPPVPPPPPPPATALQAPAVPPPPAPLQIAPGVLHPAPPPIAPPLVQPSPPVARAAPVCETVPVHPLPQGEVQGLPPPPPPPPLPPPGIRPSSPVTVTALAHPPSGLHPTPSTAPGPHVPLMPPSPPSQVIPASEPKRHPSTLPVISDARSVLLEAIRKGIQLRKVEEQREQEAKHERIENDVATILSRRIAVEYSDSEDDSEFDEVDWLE
UniProt Q4G0F5, whole entry, looked up: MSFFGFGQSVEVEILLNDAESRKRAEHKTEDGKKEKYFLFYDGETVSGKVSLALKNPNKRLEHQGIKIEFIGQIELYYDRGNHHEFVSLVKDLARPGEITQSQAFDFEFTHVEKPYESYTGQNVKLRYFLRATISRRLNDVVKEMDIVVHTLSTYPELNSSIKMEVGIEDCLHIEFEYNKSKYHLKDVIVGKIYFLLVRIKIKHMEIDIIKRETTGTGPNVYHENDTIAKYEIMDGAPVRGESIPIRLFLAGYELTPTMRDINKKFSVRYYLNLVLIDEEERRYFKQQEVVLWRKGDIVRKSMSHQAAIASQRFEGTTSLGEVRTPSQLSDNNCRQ
UniProt O75351, whole entry, looked up: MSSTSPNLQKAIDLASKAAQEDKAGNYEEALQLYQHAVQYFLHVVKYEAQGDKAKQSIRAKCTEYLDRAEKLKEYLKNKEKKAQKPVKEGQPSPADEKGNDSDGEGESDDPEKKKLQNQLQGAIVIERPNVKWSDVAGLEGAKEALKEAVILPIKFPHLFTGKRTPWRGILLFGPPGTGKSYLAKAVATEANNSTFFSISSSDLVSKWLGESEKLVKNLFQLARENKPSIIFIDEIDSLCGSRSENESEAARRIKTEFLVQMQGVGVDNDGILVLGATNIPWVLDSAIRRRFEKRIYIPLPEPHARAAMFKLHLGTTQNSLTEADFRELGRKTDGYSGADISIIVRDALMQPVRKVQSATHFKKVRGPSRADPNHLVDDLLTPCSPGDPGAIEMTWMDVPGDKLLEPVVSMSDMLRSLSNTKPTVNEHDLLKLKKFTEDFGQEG
UniProt Q6RFH5: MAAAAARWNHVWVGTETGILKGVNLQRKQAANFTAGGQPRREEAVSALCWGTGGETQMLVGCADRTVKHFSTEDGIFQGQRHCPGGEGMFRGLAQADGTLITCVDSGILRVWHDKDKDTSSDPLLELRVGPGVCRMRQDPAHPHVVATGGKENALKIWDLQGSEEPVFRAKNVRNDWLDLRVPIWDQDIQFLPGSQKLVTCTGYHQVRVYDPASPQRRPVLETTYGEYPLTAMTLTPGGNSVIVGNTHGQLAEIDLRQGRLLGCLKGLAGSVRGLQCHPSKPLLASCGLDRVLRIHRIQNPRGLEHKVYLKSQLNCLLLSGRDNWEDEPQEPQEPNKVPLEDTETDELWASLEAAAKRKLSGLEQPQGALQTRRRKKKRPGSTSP
UniProt Q86VN1: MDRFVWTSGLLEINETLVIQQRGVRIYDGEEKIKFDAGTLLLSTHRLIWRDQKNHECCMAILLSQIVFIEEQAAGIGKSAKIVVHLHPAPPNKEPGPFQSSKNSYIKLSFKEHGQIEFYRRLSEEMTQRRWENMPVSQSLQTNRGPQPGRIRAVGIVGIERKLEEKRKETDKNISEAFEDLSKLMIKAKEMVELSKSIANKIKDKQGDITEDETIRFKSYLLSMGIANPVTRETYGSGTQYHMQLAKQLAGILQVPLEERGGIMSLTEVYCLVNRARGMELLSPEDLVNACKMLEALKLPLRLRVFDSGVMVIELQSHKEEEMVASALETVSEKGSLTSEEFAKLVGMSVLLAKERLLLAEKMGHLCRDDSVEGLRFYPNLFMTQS
UniProt Q9Y2W2: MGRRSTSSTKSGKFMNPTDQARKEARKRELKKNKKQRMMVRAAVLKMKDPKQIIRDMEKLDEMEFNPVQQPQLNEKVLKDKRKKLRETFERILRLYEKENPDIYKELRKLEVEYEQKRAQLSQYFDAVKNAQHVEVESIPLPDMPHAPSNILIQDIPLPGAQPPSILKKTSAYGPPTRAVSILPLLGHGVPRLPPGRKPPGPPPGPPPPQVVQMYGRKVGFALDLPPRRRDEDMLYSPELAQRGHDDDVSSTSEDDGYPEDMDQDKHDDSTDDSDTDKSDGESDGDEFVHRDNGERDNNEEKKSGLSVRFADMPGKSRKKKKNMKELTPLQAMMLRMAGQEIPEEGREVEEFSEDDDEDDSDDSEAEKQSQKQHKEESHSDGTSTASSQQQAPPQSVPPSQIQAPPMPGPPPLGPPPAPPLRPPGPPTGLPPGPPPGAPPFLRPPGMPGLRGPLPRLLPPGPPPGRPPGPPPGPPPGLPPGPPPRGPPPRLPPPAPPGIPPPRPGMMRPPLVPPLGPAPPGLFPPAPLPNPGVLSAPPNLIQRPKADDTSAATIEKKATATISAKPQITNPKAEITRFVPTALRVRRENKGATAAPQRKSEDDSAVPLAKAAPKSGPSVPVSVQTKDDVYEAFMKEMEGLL
UniProt Q9H9H4: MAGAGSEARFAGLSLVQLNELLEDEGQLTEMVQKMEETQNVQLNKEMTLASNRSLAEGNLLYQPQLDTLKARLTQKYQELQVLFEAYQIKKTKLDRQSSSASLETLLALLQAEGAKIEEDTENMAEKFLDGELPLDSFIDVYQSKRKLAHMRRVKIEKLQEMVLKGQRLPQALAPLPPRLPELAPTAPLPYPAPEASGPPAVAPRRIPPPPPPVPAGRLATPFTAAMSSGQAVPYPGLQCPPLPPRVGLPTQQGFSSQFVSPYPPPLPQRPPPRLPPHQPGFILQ
UniProt O00401, whole entry, looked up: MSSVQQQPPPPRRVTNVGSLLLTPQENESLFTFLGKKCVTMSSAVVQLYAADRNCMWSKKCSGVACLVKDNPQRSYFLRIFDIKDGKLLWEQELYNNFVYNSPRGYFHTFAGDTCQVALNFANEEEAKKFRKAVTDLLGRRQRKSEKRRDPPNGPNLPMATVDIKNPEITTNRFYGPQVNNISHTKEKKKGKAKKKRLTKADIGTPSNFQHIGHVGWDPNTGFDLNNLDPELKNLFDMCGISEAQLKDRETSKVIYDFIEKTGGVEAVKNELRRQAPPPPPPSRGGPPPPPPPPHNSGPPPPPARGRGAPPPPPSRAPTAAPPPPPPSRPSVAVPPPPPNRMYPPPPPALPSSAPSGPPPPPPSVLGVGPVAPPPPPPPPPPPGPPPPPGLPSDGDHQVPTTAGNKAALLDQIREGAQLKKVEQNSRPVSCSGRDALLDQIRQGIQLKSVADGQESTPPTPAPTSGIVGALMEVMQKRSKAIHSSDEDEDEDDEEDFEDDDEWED
UniProt Q6P4I2: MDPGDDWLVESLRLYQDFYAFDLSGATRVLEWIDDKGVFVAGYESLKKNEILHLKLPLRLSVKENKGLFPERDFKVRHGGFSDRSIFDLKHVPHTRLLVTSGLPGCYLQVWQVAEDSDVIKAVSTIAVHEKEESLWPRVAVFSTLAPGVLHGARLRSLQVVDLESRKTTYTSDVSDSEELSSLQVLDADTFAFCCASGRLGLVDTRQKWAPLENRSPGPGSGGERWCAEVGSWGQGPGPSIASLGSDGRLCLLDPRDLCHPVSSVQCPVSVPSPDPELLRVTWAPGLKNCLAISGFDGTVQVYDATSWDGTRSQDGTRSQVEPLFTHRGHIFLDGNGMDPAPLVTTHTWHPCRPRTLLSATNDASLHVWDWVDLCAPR

Compound: C#Cc1cccc(Nc2ncnc3cc(OCCOC)c(OCCOC)cc23)c1 [erlotinib]
Assay: log2 fold change, soluble protein after heating vs DMSO (PISA); higher = thermal stabilisation; K562 cells, 10 uM, 30 min; active = over 0.2 and 3.5 SD of the protein, either way, in both replicates (recomputed)
In short: (§1)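 Values are thermal stability changes relative to control samples and are taken from duplicates. They are stated as log2 fold changes. Before quantification by TMTpro 16plex LC-MS/MS with equalised channel sums, K562 cells at 2×10^6 cells/mL were treated with 10 μM compound for 30 min, heated in aliquots for 3 min across 48°C-58°C, pooled, extracted in PBS with 0.5% NP-40 at 4°C, and centrifuged at 21,000xg for 90 min to give the soluble supernatant.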

log2 fold change, inactive:
VPS35 (UniProt Q96QK1) -0.004
WDR45 (UniProt Q9Y484) 0.053
VPS4A (UniProt Q9UN37) 0.007
WASF2 (UniProt Q9Y6W5) -0.017
WRAP53 (UniProt Q9BUR4) -0.082
WDR77 (UniProt Q9BQA1) 0.019
WIPF3 (UniProt A6NGB9) 0.036
WASF1 (UniProt Q92558) 0.034
VPS26B (UniProt Q4G0F5) 0.023

Compound: C/C(=N\NC(=O)C1=CC(=CC=C1)S(=O)(=O)N2CCOCC2)/C3=C(C=CC(=C3)Cl)O
Assay: as above
In short: as §1

log2 fold change, inactive:
WDR5 (UniProt P61964) -0.056
WDR6 (UniProt Q9NNW5) 0.042
WDR13 (UniProt Q9H1Z4) 0.03
VPS4B (UniProt O75351) 0.071
WDR74 (UniProt Q6RFH5) -0.2
WDR36 (UniProt Q8NI36) -0.03
VPS13C (UniProt Q709C8) 0.042
WIPF2 (UniProt Q8TF74) -0.037
VPS36 (UniProt Q86VN1) 0.058
WDR70 (UniProt Q9NW82) 0.032
VPS26A (UniProt O75436) 0.05
VPS29 isoform 2 (UniProt Q9UBQ0) -0.026
WBP11 (UniProt Q9Y2W2) 0.021
WDR26, A0A499FIZ0 -0.049
VPS45 (UniProt Q9NRW7) 0.079
WDR82 (UniProt Q6UXN9) -0.072
WDFY1 (UniProt Q8IWB7) 0.031
VPS37B (UniProt Q9H9H4) 0.116
VWDE (UniProt Q8N2E2) -0.077
VWA5A (UniProt O00534) -0.007
VPS13A (UniProt Q96RL7) 0.014
WASL (UniProt O00401) 0.109
WDR73 (UniProt Q6P4I2) 0.068
WASHC4 (UniProt Q2M389) 0.029
VPS35 (UniProt Q96QK1) 0.025
WDR45 (UniProt Q9Y484) 0.031
VPS4A (UniProt Q9UN37) 0.042
WASF2 (UniProt Q9Y6W5) 0.019
WRAP53 (UniProt Q9BUR4) -0.022
WDR77 (UniProt Q9BQA1) 0.025
WIPF3 (UniProt A6NGB9) -0.076
WASF1 (UniProt Q92558) -0.017
VPS26B (UniProt Q4G0F5) 0.044

Compound: C1=CC(=C(C=C1Cl)C2=NC3=NC=CN=C3C(=N2)NC4=CC=NC=C4)F
Assay: as above
In short: as §1

log2 fold change, inactive:
WDR5 (UniProt P61964) -0.246
WDR6 (UniProt Q9NNW5) -0.058
WDR13 (UniProt Q9H1Z4) 0.019
VPS4B (UniProt O75351) 0.033
WDR74 (UniProt Q6RFH5) -0.224
WDR36 (UniProt Q8NI36) -0.196
VPS13C (UniProt Q709C8) 0.083
WIPF2 (UniProt Q8TF74) -0.012
VPS36 (UniProt Q86VN1) 0.094
WDR70 (UniProt Q9NW82) 0.061
VPS26A (UniProt O75436) 0.057
VPS29 isoform 2 (UniProt Q9UBQ0) 0.073
WBP11 (UniProt Q9Y2W2) -0.01
WDR26, A0A499FIZ0 0.02
VPS45 (UniProt Q9NRW7) 0.024
WDR82 (UniProt Q6UXN9) -0.159
WDFY1 (UniProt Q8IWB7) 0.039
VPS37B (UniProt Q9H9H4) 0.018
VWDE (UniProt Q8N2E2) 0.011
VWA5A (UniProt O00534) 0.03
VPS13A (UniProt Q96RL7) 0.034
WASL (UniProt O00401) -0.082
WDR73 (UniProt Q6P4I2) 0.069
WASHC4 (UniProt Q2M389) 0.045
VPS35 (UniProt Q96QK1) 0.103
WDR45 (UniProt Q9Y484) 0.017
VPS4A (UniProt Q9UN37) 0.084
WASF2 (UniProt Q9Y6W5) -0.109
WRAP53 (UniProt Q9BUR4) -0.028
WDR77 (UniProt Q9BQA1) 0.025
WIPF3 (UniProt A6NGB9) -0.041
WASF1 (UniProt Q92558) -0.017
VPS26B (UniProt Q4G0F5) 0.045
